Source: patent publication US20160046707A1

What was measured:
[1] = molecular target: cynomolgus CCL20-secreted alkaline phosphatase (SEAP) fusion (cynomolgus monkey); assay: ELISA (FIGS. 16A-C)
[2] = molecular target: rhesus CCL20-secreted alkaline phosphatase (SEAP) fusion (rhesus monkey); assay: ELISA (FIGS. 16A-C)
[3] = molecular target: cynomolgus CCL20-secreted alkaline phosphatase (SEAP) fusion (cynomolgus monkey); assay: ELISA (FIGS. 17A and B)
[4] = molecular target: rhesus CCL20-secreted alkaline phosphatase (SEAP) fusion (rhesus monkey); assay: ELISA (FIGS. 17A and B)
[5] = molecular target: cynomolgus CCL20-secreted alkaline phosphatase (SEAP) fusion (cynomolgus monkey); assay: SPR (Biacore), CCL20-SEAP captured by anti-SEAP
[6] = molecular target: rhesus CCL20-secreted alkaline phosphatase (SEAP) fusion (rhesus monkey); assay: SPR (Biacore), CCL20-SEAP captured by anti-SEAP
[7] = molecular target: cynomolgus CCL20-secreted alkaline phosphatase (SEAP) fusion (cynomolgus monkey); assay: ELISA, CCL20-SEAP captured by anti-alkaline phosphatase antibody
[8] = molecular target: rhesus CCL20-secreted alkaline phosphatase (SEAP) fusion (rhesus monkey); assay: as above
[9] = molecular target: cynomolgus CCL20-secreted alkaline phosphatase (SEAP) fusion (cynomolgus monkey); assay: ELISA on CCL20-SEAP, Abs 450; x axis 'ug/ml' in 4-fold steps down from 10, taken as the antibody concentration as in FIG. 11C
[10] = molecular target: rhesus CCL20-secreted alkaline phosphatase (SEAP) fusion (rhesus monkey); assay: as above
[11] = molecular target: cynomolgus CCL20-secreted alkaline phosphatase (SEAP) fusion (cynomolgus monkey); assay: ELISA (fluorescent HRP substrate): CCL20-SEAP captured on anti-alkaline phosphatase in 5-fold dilutions from 20 nM (x axis, nM), antibody at 1 ug/ml
[12] = molecular target: rhesus CCL20-secreted alkaline phosphatase (SEAP) fusion (rhesus monkey); assay: as above

Row | binding [1] | binding [2] | binding [3] | binding [4] | binding [5] | binding [6] | binding [7] | binding [8] | binding [9] | binding [10] | binding [11] | binding [12] | Binder
1 | binds | binds | binds | binds | binds | binds | binds | binds | binds | binds | binds | binds | humanized anti-human CCL20 antibody 36LC3/36HC2 (antibody, human IgG1, kappa, V domains shown) VH: QVQLVQSGAEVKKPGASVKVSCKASGYTFTNYWMHWVRQAPGQGLEWMGVIDPSDSYTTYAQKFQGRVTMTVDTSTSTVYMELSSLRSEDTAVYYCARGNYGVDYAMDYWGQGTLVTVSS VL: DIQMTQSPSSLSASVGDRVTITCRASENIYGALNWYQQKPGKAPKLLIYGATNLADGVPSRFSGSGSGRQYSLTISSLQPEDFATYYCQNVLITPYTFGGGTKLEIKR
2 | binds | binds | binds | binds | binds | binds | binds | binds | binds | binds | – | – | humanized anti-human CCL20 antibody 36LK3/36HC2 (antibody, human IgG1, kappa, V domains shown) VH: QVQLVQSGAEVKKPGASVKVSCKASGYTFTNYWMHWVRQAPGQGLEWMGVIDPSDSYTTYAQKFQGRVTMTVDTSTSTVYMELSSLRSEDTAVYYCARGNYGVDYAMDYWGQGTLVTVSS VL: DIQMTQSPSSLSASVGDRVTITCGASENIYGALNWYQRKPGKAPKLLIYGATNLADGVPSRFSGSGSGRDYTLTISSLQPEDFATYYCQNVLITPYTFGQGTKLEIKR
3 | – | – | – | – | – | – | – | – | binds | binds | – | – | mouse anti-human CCL20 monoclonal antibody 36F7C10 (antibody, V domains shown) VH: QVQLQQPGAELVKPGASVKMSCKASGYTFTNYWMHWVKQRPGQGLEWIGVIDPSDSYTTYNQKFKGKATLTVDTSSSTAYMQLSSLTSEDSAVYYCTRGNYGVDYAMDYWGQGTSVTVSS VL: DIQMTQSPASLSASVGETVTITCGASENIYGALNWYQRKQGKSPQLLIYGATNLADGMSSRFSGSGSGRQYSLKISSLHPDDVATYYCQNVLITPYTFGGGTKLEIK
4 | binds | binds | binds | binds | binds | binds | binds | binds | binds | binds | – | – | chimeric 36F7C10 antibody (36F7C10-hFc) (antibody, V domains shown) VH: QVQLQQPGAELVKPGASVKMSCKASGYTFTNYWMHWVKQRPGQGLEWIGVIDPSDSYTTYNQKFKGKATLTVDTSSSTAYMQLSSLTSEDSAVYYCTRGNYGVDYAMDYWGQGTSVTVSS VL: DIQMTQSPASLSASVGETVTITCGASENIYGALNWYQRKQGKSPQLLIYGATNLADGMSSRFSGSGSGRQYSLKISSLHPDDVATYYCQNVLITPYTFGGGTKLEIK

Results are given in words; binding and its absence hold for the method and conditions named. Binding can be weak; no strength is given.
